# Earlier results in US20110053995A1, “BENZENESULFONANILIDE COMPOUND INHIBITORS OF UREA TRANSPORTERS” (THE REGENTS OF THE UNIVERSITY OF CALIFORNIA, priority 2006, published 2011).
# Some entries share one result that the patent states for a list of compounds. At least one compound was matched to its structure with a doubt left. Some compounds share one range, which may span the group rather than tell each member.
# Test system: UT
# Conditions: urea analogs; cited from earlier work
smiles,measurement,value
NC(N)=S [thiourea],concentration exhibiting activity,50 to 100 mM
